This is an account of results in PMC3141008.

The chains behind the UniProt entries cited, without tags or fusion partners. Where a name states a change or a piece, a line headed by the entry shows the natural chain unless it says otherwise.
UniProt Q9LQ02: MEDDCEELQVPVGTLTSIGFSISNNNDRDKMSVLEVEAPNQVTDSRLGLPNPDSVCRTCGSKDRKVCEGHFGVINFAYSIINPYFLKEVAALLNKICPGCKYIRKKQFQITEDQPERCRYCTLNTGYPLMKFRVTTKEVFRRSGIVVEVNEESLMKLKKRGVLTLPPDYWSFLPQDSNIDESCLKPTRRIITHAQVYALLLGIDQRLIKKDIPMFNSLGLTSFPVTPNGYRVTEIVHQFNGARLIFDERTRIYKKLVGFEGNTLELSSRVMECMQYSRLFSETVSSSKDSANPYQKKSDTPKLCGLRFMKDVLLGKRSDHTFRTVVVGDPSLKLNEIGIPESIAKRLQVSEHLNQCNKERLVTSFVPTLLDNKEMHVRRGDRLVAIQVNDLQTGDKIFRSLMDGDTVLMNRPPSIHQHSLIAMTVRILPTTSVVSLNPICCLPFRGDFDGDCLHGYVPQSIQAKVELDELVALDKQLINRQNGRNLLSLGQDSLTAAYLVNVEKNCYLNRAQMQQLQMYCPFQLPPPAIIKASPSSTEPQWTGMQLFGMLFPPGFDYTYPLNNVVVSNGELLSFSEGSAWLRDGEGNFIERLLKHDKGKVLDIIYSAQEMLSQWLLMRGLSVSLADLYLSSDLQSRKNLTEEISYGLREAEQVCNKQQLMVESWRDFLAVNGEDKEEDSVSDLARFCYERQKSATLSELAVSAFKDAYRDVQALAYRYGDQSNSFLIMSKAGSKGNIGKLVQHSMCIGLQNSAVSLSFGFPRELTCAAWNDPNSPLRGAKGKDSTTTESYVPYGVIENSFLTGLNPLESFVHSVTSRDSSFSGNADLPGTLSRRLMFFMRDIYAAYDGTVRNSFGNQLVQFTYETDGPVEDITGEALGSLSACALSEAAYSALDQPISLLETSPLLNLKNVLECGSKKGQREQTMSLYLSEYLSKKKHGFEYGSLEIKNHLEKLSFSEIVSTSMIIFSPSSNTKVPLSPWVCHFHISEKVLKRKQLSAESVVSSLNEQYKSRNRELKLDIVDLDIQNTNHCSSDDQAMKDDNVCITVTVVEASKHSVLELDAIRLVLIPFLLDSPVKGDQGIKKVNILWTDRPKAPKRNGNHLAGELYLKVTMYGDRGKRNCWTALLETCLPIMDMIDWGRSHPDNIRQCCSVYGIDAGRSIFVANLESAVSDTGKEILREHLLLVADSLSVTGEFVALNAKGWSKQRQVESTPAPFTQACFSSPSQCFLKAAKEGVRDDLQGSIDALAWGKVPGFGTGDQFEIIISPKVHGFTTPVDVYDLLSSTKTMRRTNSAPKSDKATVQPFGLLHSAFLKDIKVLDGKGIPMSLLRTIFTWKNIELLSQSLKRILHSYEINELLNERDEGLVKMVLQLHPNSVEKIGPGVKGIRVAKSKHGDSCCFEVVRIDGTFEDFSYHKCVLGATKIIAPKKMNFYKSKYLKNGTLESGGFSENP
UniProt O81098: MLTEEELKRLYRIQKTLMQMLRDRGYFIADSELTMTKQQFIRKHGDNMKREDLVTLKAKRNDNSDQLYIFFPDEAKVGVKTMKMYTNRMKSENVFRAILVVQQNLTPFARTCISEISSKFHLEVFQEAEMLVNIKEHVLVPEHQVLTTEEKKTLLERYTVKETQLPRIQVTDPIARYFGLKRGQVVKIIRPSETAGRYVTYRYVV
UniProt Q9FJ98: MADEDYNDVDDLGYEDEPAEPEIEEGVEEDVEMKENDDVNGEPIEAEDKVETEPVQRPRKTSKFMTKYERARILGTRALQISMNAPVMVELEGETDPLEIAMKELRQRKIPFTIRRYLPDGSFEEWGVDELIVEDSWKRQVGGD
UniProt Q8LFJ6: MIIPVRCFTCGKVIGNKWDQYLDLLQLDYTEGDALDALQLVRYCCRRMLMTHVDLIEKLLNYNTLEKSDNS
UniProt Q9FLM8: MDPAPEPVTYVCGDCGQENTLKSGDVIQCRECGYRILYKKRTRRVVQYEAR

No constants are given. Whether binding was seen depends on the method and setting. In cells and extracts the contact can be indirect. Here binding means that the protein was enriched with, or labelled near, the bait; the list need not be complete.

For this experiment, the target named is NUCLEAR RNA POLYMERASE D1 (NRPD1), carboxy-terminal 3×Flag tagged (Arabidopsis thaliana) (UniProt Q9LQ02). The experiment in a line: affinity purification with mass spectrometry; ~10 g flower tissue of NRPD1-3×Flag and NRPD1-3×Flag-BLRP T4 plants (Col as negative control); lysis buffer 50 mM Tris pH7.6, 150 mM NaCl, 5 mM MgCl2, 10% glycerol, 0.1% NP-40; Dynabeads conjugated with a Flag antibody, 4°C 2.5 hours; eluted with 3×Flag peptide.
With NRPB5/D5 (from UniProt O81098), the binding result was “binds”. As for “NRPB6A/D6A/E6A (from UniProt Q9FJ98 1-144)”, the entry is “binds”. With “NRPB10/D10/E10 (from UniProt Q8LFJ6 1-71)”, the binding entry was “binds”. Regarding “NRPB12/D12/E12 (from UniProt Q9FLM8 1-51)”, the binding result is listed as “binds”. As for “RNA-… RNA POLYMERASE 2 (RDR2), endogenous (from UniProt O82504 1-1133)”, the entry is “binds”.
